NP40-soluble protein abundance data for eleven targets are collected here from the supplement of paper PMC6411743.

Protein sequences, listed by entry. Tags and fused reporters are not part of them. Lines headed by an entry give the natural chain unless they say otherwise; changes in a name come on top.
UniProt Q9Y262, whole entry: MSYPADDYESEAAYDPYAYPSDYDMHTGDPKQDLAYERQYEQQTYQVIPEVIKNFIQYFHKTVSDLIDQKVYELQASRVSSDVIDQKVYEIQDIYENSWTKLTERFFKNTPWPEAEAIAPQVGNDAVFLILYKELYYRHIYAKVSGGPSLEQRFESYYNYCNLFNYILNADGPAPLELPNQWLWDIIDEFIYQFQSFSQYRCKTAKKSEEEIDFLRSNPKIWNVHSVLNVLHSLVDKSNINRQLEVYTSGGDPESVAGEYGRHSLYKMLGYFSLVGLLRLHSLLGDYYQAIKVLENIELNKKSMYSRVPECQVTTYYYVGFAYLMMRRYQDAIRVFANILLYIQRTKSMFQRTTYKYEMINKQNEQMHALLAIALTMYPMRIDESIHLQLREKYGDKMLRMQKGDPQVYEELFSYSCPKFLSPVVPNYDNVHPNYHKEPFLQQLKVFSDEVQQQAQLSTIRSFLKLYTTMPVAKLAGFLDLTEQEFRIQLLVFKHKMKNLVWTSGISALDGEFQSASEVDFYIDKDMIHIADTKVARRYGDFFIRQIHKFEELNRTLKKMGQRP
UniProt P30626: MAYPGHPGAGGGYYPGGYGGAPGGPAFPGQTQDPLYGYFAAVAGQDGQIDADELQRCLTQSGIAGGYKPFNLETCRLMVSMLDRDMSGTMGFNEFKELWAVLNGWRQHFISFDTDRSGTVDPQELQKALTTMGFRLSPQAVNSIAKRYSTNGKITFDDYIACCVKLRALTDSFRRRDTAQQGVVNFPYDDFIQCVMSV
UniProt A3KMH1: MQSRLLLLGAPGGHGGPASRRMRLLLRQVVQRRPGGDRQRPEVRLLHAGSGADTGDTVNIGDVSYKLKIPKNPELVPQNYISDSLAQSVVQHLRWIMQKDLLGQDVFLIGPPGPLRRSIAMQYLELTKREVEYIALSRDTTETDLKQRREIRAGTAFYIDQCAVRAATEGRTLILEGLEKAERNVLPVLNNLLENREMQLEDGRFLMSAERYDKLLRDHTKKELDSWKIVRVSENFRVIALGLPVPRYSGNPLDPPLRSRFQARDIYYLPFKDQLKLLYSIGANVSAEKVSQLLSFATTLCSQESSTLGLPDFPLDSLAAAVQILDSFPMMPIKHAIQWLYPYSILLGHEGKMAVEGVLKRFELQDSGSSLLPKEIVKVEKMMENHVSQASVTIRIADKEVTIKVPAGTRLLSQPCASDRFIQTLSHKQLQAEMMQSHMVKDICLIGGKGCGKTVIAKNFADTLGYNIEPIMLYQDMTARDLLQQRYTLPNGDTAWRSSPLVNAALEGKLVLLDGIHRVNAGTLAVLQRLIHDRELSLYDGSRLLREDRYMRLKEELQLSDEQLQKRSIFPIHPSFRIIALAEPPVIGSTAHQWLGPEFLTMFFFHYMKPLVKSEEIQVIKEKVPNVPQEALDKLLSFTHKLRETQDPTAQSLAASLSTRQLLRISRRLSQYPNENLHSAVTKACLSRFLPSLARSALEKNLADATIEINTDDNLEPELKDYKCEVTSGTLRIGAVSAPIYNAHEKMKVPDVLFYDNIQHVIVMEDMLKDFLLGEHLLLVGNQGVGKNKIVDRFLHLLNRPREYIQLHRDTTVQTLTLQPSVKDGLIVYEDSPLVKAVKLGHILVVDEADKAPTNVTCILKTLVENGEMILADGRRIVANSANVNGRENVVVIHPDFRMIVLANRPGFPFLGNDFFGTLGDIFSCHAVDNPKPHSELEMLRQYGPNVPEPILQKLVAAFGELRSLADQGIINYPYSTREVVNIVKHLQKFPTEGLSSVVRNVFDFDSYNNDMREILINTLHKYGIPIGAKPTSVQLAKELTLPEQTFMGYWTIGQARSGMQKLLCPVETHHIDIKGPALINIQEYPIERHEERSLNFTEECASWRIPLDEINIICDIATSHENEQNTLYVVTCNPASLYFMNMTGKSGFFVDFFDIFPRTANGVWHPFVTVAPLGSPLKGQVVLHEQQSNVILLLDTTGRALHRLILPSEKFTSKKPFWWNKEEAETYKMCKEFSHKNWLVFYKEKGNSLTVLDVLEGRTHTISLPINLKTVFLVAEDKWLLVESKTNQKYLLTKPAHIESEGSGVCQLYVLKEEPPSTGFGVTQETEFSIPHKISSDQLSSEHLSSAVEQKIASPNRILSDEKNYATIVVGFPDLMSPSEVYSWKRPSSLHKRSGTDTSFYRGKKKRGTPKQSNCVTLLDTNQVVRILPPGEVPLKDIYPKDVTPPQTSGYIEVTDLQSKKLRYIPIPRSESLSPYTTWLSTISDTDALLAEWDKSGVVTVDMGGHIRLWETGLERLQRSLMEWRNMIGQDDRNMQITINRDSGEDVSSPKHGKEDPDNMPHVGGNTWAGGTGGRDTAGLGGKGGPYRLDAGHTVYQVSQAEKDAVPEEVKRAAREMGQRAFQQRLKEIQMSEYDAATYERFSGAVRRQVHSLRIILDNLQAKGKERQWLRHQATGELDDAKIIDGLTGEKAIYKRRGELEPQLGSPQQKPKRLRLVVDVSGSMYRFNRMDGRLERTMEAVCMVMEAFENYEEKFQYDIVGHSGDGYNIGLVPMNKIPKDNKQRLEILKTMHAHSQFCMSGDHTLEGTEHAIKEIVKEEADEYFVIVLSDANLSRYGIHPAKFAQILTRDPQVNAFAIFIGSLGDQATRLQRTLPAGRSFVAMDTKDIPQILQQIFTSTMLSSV
UniProt Q9NZ72: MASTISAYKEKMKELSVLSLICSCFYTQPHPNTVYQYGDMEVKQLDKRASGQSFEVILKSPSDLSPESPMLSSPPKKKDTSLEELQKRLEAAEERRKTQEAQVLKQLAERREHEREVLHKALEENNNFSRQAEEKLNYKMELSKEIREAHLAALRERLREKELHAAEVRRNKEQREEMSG
UniProt Q96DH6: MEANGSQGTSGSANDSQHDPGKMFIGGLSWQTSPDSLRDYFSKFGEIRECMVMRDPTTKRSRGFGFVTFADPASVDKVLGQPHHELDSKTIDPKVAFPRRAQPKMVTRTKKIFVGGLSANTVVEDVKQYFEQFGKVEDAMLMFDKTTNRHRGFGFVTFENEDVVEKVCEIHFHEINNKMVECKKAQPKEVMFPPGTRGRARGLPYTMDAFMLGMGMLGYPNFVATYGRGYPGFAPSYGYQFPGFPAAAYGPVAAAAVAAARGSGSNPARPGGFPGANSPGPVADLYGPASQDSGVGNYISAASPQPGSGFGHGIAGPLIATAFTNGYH
UniProt O75943: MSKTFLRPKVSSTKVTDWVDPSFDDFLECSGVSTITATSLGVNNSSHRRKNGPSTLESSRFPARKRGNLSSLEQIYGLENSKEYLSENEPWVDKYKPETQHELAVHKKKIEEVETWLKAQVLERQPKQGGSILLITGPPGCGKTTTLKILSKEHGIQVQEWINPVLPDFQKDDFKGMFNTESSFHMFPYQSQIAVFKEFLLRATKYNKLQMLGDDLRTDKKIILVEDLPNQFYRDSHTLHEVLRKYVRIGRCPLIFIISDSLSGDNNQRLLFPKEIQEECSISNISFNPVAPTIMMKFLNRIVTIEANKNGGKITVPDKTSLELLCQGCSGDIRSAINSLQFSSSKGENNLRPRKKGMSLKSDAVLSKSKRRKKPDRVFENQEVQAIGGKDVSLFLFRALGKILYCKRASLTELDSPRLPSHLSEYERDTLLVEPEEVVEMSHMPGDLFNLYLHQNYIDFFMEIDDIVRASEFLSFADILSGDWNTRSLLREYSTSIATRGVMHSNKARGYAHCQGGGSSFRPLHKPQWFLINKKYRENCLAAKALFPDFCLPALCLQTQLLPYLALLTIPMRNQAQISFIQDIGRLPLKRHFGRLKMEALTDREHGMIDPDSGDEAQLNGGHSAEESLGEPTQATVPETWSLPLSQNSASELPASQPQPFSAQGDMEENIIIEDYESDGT
UniProt Q9Y483: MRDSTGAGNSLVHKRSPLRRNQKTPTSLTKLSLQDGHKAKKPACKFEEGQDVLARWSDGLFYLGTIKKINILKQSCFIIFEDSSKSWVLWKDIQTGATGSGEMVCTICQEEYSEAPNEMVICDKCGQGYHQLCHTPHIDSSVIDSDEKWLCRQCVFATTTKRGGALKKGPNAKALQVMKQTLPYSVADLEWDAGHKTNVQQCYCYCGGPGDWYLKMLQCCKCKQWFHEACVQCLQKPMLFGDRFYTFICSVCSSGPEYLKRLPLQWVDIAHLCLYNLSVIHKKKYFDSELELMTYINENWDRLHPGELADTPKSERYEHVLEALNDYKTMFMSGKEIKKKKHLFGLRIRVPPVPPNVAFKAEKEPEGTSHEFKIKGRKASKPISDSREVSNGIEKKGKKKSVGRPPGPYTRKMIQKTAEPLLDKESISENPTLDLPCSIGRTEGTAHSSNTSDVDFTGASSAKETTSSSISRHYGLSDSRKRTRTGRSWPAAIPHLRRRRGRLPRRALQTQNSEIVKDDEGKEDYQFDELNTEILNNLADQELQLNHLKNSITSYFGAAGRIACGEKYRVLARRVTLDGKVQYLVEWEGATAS
UniProt Q9BUN8: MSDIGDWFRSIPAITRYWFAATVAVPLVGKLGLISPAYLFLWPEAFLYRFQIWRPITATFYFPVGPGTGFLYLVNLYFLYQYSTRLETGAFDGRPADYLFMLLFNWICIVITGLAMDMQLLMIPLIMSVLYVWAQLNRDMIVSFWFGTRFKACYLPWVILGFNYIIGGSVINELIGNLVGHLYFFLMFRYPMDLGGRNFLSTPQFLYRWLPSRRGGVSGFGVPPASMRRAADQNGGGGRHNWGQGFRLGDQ
UniProt Q8N3P4: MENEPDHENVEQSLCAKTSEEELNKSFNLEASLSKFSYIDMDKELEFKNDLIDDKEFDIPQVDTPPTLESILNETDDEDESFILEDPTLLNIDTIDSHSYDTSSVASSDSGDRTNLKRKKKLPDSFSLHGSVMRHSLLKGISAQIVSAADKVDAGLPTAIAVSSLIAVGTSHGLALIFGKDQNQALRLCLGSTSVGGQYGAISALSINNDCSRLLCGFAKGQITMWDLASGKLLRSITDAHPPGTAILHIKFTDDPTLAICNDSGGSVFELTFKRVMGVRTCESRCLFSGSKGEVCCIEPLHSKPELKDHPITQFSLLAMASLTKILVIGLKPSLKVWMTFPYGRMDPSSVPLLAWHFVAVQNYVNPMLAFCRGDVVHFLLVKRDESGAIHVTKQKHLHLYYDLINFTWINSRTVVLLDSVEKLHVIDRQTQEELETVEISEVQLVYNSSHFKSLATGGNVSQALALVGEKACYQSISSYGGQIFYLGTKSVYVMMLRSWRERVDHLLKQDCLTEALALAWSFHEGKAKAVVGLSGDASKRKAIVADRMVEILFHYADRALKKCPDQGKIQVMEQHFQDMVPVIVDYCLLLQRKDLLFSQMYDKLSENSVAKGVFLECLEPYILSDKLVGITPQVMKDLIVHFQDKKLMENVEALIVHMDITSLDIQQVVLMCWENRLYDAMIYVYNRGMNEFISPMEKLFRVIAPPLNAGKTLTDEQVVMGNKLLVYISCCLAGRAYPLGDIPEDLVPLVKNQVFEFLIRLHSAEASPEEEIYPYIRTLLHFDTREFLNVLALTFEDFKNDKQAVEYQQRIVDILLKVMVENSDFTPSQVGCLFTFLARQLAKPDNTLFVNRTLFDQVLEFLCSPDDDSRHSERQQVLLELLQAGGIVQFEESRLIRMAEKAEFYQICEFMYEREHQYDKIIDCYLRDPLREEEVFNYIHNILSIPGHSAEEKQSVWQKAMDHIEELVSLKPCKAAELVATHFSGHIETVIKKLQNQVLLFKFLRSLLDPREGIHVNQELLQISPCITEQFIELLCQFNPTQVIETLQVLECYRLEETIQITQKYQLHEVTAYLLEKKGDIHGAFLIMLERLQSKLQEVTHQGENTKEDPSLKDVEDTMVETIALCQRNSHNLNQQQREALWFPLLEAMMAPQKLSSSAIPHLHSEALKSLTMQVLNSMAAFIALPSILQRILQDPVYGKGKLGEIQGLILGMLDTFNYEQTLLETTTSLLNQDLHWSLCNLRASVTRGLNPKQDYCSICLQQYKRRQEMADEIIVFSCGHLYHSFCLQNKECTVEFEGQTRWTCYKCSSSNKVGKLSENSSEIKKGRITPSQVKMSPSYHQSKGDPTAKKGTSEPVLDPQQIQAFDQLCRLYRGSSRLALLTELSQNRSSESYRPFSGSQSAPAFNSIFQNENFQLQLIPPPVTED
UniProt Q9NR46: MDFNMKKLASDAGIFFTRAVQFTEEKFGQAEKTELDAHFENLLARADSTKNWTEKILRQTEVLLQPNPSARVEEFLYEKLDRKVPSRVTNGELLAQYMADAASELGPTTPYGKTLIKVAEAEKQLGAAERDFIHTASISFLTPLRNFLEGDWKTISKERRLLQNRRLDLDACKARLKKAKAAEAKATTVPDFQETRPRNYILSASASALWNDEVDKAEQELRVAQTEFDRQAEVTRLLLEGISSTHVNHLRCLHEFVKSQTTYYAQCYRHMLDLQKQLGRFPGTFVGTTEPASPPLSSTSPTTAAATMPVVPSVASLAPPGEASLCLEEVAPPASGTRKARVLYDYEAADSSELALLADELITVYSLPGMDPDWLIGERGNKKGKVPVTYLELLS

± gives the standard deviation of the averaged measurements. Only a part is listed here, and it is no random draw. Small differences around the control level are noise.

Compound in the test: Nc1ncnc2c1ncn2[C@@H]1O[C@H](COP(=O)(O)OP(=O)(O)OP(=O)(O)O)[C@@H](O)[C@H]1O [adenosine triphosphate]
Kind of test: NP40-soluble protein abundance relative to vehicle (solubility fold change) (ratio); higher = more soluble protein in presence of ATP. In outline: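 Jurkat crude lysate prepared with a Dounce homogeniser was treated at eight concentrations spanning 0.1 to 10 mM, 10 min at room temperature then 3 min at 37 °C. Solubilisation with 0.8% NP40 and benzonase and ultracentrifugation preceded TMT labelling of the supernatant for LC-MS/MS. Fold change against the detergent-processed vehicle was determined per replicate from vsn-normalised intensities, across three independent experiments.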

For “B0QY89 and related entries (UniProt Q9Y262)”, the NP40-soluble protein abundance runs as follows: (concentration: 0.1mM) 1.01 ± 0.065; (concentration: 0.5mM) 1.01 ± 0.05; (concentration: 1mM) 1.09 ± 0.093; (concentration: 2mM) 1.25 ± 0.15; (concentration: 4mM) 1.23 ± 0.075; (concentration: 6mM) 1.35 ± 0.072. Moreover, the NP40-soluble protein abundance (concentration: 8mM) came out at 1.6 ± 0.1 and the NP40-soluble protein abundance (concentration: 10mM) stood at 1.7 ± 0.12.

For “C9J0K6 and related entries (UniProt P30626)”, the NP40-soluble protein abundance (concentration: 0.1mM) amounted to 0.872 ± 0.12; the NP40-soluble protein abundance (concentration: 0.5mM) came out at 0.824 ± 0.2; the NP40-soluble protein abundance (concentration: 1mM) worked out at 0.887 ± 0.066; the NP40-soluble protein abundance (concentration: 2mM) was 0.921 ± 0.078; the NP40-soluble protein abundance (concentration: 4mM) was 0.892 ± 0.039; the NP40-soluble protein abundance (concentration: 6mM) amounted to 0.911 ± 0.072. Besides, the NP40-soluble protein abundance (concentration: 8mM) worked out at 0.896 ± 0.011 and the NP40-soluble protein abundance (concentration: 10mM) turned out to be 0.811 ± 0.12.

UniProt A3KMH1 and related entries: the NP40-soluble protein abundance is 1.019 ± 0.0077 (concentration: 0.1mM) and 0.979 ± 0.029 (concentration: 0.5mM).

Turning to “A0A0J9YW36|Q9NZ72 and related entries (UniProt Q9NZ72)”, the NP40-soluble protein abundance by setting is: (concentration: 0.1mM) 0.929 ± 0.12; (concentration: 0.5mM) 0.902 ± 0.04; (concentration: 1mM) 1.03 ± 0.25; (concentration: 2mM) 1.21 ± 0.52; (concentration: 4mM) 0.979 ± 0.12; (concentration: 6mM) 1.18 ± 0.36. Besides, the NP40-soluble protein abundance is, setting by setting: (concentration: 8mM) 0.945 ± 0.1; (concentration: 10mM) 0.863 ± 0.05.

Turning to “B4DHE8 and related entries (UniProt Q96DH6)”, the NP40-soluble protein abundance (concentration: 0.1mM) stood at 1.04 ± 0.072; the NP40-soluble protein abundance (concentration: 0.5mM) was 1.04 ± 0.08; the NP40-soluble protein abundance (concentration: 1mM) turned out to be 1.02 ± 0.045; the NP40-soluble protein abundance (concentration: 2mM) is 1.02 ± 0.058; the NP40-soluble protein abundance (concentration: 4mM) turned out to be 0.994 ± 0.065; the NP40-soluble protein abundance (concentration: 6mM) stood at 0.993 ± 0.08. The NP40-soluble protein abundance was 0.983 ± 0.071 (concentration: 8mM) and 0.972 ± 0.079 (concentration: 10mM).

As for “A0A0G2JPT5|O75943 and related entries (UniProt O75943)”, the NP40-soluble protein abundance came to 1.16 ± 0.1 (concentration: 0.1mM); 1.51 ± 0.21 (concentration: 0.5mM); 1.49 ± 0.28 (concentration: 1mM); 1.59 ± 0.3 (concentration: 2mM); 1.62 ± 0.32 (concentration: 4mM); 1.7 ± 0.33 (concentration: 6mM). Besides, the NP40-soluble protein abundance worked out at 1.69 ± 0.28 (concentration: 8mM) and 1.65 ± 0.33 (concentration: 10mM).

As for “B4DZG1 and related entries (UniProt Q9Y483)”, the NP40-soluble protein abundance amounted to 1.03 ± 0.012 (concentration: 0.1mM); 1.14 ± 0.051 (concentration: 0.5mM); 1.19 ± 0.023 (concentration: 1mM); 1.25 ± 0.027 (concentration: 2mM); 1.36 ± 0.057 (concentration: 4mM); 1.41 ± 0.082 (concentration: 6mM). For the same target, the NP40-soluble protein abundance is, setting by setting: (concentration: 8mM) 1.5 ± 0.032; (concentration: 10mM) 1.56 ± 0.049.

For the target “B4E1G1 and related entries (UniProt Q9BUN8)”, the NP40-soluble protein abundance runs as follows: (concentration: 0.1mM) 1.01 ± 0.015; (concentration: 0.5mM) 1.02 ± 0.049; (concentration: 1mM) 0.948 ± 0.084; (concentration: 2mM) 0.979 ± 0.12; (concentration: 4mM) 0.989 ± 0.083; (concentration: 6mM) 0.975 ± 0.1. The NP40-soluble protein abundance reads like this: (concentration: 8mM) 0.955 ± 0.021; (concentration: 10mM) 1 ± 0.056.

For “C9JJN9 and related entries (UniProt Q8N3P4)”, the NP40-soluble protein abundance came to 1.02 ± 0.063 (concentration: 0.1mM); 1.04 ± 0.038 (concentration: 0.5mM); 1.01 ± 0.053 (concentration: 1mM); 0.984 ± 0.04 (concentration: 2mM); 0.994 ± 0.068 (concentration: 4mM); 0.9606 ± 0.0047 (concentration: 6mM). In addition, the NP40-soluble protein abundance turned out to be 0.955 ± 0.039 (concentration: 8mM) and 0.979 ± 0.023 (concentration: 10mM).

In the case of “B7ZC38 and related entries (UniProt Q9NR46)”, the NP40-soluble protein abundance runs as follows: (concentration: 0.1mM) 0.96 ± 0.024; (concentration: 0.5mM) 0.961 ± 0.027; (concentration: 1mM) 0.993 ± 0.015; (concentration: 2mM) 0.977 ± 0.029; (concentration: 4mM) 0.98 ± 0.033; (concentration: 6mM) 0.981 ± 0.021. Besides, the NP40-soluble protein abundance (concentration: 8mM) turned out to be 0.988 ± 0.056 and the NP40-soluble protein abundance (concentration: 10mM) stood at 0.936 ± 0.039.

In the case of “A0A5E8 and related entries (UniProt Q99501)”, the NP40-soluble protein abundance was 0.872 ± 0.084 (concentration: 0.1mM) and 0.98 ± 0.01 (concentration: 0.5mM).
